{"source": "patent US20100075307", "proteins": {"B1": {"name": "Klenow N2 Streptavidin-fusion protein (protein)", "chain": "VISYDNYVTILDEETLKAWIAKLEKAPVFAFDTETDSLDNISANLVGLSFAIEPGVAAYIPVAHDYLDAPDQISRERALELLKPLLEDEKALKVGQNLKYDRGILANYGIELRGIAFDTMLESYILNSVAGRHDMDSLAERWLKHKTITFEEIAGKGKNQLTFNQIALEEAGRYAAEDADVTLQLHLKMWPDLQKHKGPLNVFENIEMPLVPVLSRIERNGVKI"}}, "target": "T1, Klenow C2 Streptavidin-fusion protein, P00582", "T1 chain": "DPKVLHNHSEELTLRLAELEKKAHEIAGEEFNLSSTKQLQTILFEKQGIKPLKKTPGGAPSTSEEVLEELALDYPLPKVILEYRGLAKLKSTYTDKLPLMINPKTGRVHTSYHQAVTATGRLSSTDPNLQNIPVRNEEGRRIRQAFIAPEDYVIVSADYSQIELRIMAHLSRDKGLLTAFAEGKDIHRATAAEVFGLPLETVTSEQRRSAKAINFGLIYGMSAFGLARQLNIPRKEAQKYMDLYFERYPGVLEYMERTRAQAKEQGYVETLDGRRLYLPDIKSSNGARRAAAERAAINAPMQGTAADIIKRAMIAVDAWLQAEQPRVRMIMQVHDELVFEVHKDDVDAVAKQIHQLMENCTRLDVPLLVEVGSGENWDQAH"}
{"protein": "B1", "values": [{"measurement": "QPCR signal (reconstituted Klenow polymerase activity copying the modified Oligo 1 template)", "value": "Combination of both halves of split Klenow with biotinylated antibodies (N2C2+AB) resulted in a substantially better signal than combination of both halves without the antibodies (N2C2)"}]}
